The values below are quoted from earlier work in US7919510B2 (priority 2005, dated 2011).

The conditions of data set [1]: 11 patients with persistent shock, up to 30 days; cited from earlier work.
For data set [2] the following is noted: human migraine, single i.v. administration; cited from earlier work.

The structures appear in SMILES notation.

As to `CN=C(N)NCCC[C@H](N)C(=O)O.Cl` [L-NMMA, L-N^G methylarginine hydrochloride], the survival rate in data set [1] is 72%. Besides, in data set [2], the response rate was 67%.
